Our source for the binding values is article PMC5309790.

The chains behind the UniProt entries cited, without tags or fusion partners.
UniProt Q13546: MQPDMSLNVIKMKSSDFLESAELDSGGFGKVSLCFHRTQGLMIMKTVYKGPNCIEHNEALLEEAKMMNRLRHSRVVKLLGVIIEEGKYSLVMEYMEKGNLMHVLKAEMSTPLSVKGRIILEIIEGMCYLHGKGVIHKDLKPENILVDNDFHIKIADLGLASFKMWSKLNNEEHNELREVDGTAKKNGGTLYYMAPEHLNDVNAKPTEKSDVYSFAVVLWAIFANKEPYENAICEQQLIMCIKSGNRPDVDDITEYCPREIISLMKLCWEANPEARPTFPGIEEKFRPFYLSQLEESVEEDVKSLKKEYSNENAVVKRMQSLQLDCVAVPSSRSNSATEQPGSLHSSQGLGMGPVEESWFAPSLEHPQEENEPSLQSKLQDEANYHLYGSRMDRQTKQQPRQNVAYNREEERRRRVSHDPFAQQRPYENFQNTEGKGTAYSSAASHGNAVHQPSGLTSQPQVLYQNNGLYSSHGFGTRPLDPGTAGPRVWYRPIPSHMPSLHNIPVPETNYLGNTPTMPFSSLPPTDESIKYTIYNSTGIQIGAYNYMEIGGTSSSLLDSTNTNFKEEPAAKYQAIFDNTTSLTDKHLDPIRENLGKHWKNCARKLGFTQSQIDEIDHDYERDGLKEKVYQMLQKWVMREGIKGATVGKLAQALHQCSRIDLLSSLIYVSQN
UniProt Q9QZL0: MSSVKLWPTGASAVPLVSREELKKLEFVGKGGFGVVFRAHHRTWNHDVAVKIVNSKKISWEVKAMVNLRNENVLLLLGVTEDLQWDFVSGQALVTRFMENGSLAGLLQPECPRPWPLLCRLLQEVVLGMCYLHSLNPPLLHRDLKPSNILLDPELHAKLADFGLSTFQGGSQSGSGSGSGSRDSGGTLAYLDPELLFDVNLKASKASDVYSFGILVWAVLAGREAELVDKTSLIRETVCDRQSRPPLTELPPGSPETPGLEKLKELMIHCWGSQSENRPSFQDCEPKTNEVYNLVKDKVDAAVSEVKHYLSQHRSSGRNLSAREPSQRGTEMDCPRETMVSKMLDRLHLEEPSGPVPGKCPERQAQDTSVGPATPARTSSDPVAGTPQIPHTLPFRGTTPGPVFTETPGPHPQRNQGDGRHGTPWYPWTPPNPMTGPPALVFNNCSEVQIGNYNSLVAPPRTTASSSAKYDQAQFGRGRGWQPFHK
UniProt Q9Y572: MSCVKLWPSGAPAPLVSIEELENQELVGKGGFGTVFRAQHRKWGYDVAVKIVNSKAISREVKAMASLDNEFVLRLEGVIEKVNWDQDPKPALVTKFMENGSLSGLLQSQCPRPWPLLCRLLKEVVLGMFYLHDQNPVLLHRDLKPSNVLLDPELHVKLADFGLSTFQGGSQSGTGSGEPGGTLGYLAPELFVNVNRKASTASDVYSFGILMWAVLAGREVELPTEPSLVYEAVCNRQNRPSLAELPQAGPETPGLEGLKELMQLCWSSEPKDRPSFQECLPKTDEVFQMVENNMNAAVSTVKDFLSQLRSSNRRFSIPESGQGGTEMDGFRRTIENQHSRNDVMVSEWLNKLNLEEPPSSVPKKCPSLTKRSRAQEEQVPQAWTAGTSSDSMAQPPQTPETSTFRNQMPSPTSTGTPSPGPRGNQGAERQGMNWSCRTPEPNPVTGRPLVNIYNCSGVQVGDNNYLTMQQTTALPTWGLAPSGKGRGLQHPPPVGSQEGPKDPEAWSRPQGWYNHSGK

Experiment [1] deals with T1, Flag-tagged RIP1 3CS-S161E in RIP1 KO L929 cells (mouse) (UniProt Q60855).
T1 sequence: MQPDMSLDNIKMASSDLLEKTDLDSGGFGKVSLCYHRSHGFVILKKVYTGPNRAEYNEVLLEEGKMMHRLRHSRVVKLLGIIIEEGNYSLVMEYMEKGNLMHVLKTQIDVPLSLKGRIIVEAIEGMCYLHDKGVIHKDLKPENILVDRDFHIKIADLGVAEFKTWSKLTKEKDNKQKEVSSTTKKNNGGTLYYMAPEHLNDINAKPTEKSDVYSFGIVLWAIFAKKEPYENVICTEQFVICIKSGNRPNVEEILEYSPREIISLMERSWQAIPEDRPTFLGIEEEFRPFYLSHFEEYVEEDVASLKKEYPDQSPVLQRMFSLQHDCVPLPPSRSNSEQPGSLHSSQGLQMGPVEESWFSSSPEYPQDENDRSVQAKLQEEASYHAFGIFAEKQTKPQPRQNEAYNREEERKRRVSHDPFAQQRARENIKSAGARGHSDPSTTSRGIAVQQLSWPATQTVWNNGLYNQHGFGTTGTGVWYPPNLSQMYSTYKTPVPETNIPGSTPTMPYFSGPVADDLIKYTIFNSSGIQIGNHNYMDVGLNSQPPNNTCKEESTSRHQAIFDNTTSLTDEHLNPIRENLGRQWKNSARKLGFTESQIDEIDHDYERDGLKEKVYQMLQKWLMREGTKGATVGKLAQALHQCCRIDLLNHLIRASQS
The experiment in a line: co-IP; necrosome immunoprecipitation from L929 cells (Flag-RIP1 knock-in or RIP1 KO reconstituted with RIP1 variants) treated with mTNF + zVAD, with or without BHA/amytal; anti-Flag M2 beads at 4 °C overnight; blots with anti-RIP1, anti-RIP3, anti-FADD.

The target of experiment [2] is T2, Flag-tagged RIP1 KK-AT-S161E in RIP1 KO L929 cells (mouse) (UniProt Q60855).
T2 sequence: T1 sequence with K45A, K46T, S257C, S268C, S586C
The description is as above.

The target of experiment [3] is T3, Flag-tagged KK-AT RIP1 expressed in RIP1 KO HEK293T cells (mouse) (UniProt Q60855).
T3 sequence: T1 sequence with K45A, K46T, E161S, S257C, S268C, S586C
The experiment in a line: co-IP; co-expression in RIP1 KO HEK293T cell line and co-immunoprecipitation; details in Supplementary Fig. 7, not shown.

The target in experiment [4] is T4, KK-AT-S161E RIP1 co-expressed in RIP1 KO HEK293T cells (mouse) (UniProt Q60855).
T4 sequence: T1 sequence with K45A, K46T, S257C, S268C, S586C
Described as above.

Experiment [5] deals with RIP1, endogenous in HeLa-RIP3 cells (human (endogenous in HeLa)) (UniProt Q13546). The experiment in a line: co-IP; necrosome formation in HeLa-RIP3 cells induced by human TNF, with or without BHA/amytal; details in Supplementary Fig. 6f-g, not shown.

Changes are numbered by the printed parent chain. No constants are given. Whether binding was seen depends on the method and setting. In cells and extracts the contact can be indirect. Some results given as binding are weak or reduced against the parent protein; the word gives no strength. For some assays here: Tags and fused reporters may be left off the sequences shown.

On to “RIP3, endogenous in L929 cells (from UniProt Q9QZL0 1-486)”, for which the binding result in experiment [1] and in experiment [2] was “binds” each time.

As for “RIP3 co-expressed with RIP1 in RIP1 KO HEK293T cells (from UniProt Q9QZL0 1-486)”, the binding entry in experiment [3] and in experiment [4] was “binds” throughout. For “RIP3 overexpressed in HeLa cells (HeLa-RIP3) (from UniProt Q9Y572 1-518)”, the binding entry in experiment [5] is “binds”.
